Binding data for one substance are collected here from PMC9972157.

Protein sequences, listed by entry. Tags and fused reporters are not part of them.
UniProt P38936: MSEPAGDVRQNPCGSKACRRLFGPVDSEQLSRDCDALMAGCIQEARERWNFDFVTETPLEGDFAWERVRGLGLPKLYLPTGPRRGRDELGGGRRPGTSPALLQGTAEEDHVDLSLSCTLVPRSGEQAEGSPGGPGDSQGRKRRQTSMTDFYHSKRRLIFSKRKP

These are yes or no findings as the source states them, for the method shown. In cells and extracts the contact can be indirect. Some binding calls cover weakened binding; strength is not graded here.

For the assay, the target named is T1, RNA‐binding protein Quaking‐5 (QKI‐5) (human (endogenous in H1299 and H460)) (UniProt Q96PU8).
T1 sequence: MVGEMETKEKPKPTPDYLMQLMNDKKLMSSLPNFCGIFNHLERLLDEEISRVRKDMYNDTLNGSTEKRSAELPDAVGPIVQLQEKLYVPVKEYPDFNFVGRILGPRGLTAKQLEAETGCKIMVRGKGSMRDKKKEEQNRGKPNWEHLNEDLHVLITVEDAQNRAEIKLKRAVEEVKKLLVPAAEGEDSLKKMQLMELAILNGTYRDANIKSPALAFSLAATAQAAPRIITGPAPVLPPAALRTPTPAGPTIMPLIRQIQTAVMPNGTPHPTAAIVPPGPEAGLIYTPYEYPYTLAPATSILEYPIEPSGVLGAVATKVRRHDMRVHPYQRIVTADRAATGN
Kind of assay: co-IP; anti‐QKI‐5 antibody with protein A/G agarose beads, overnight at 4°C, RIPA lysates of H1299 and H460 cells; Western blot; input and IgG as controls. Background: Immunoblotting shows a protein as a band on a membrane.

In the case of “p21^Waf1/Cip1 (p21) (from UniProt P38936 1-164)”, the binding result was “binds”.
